Measured data: PubChem BioAssay AID1508597 (Cure First, 2020)
Assay: 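Knock-downs altering ovarian cancer cell survival with or without PARP inhibitor rucaparib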 (primary screen). Cell system: human ovarian carcinoma lines grown from tumours: OCI-P5x (papillary serous) and OCI-C5x (clear cell). Knock-down reagent: siRNA pool against human genes, 1.25 pmol siRNA per well. Timing: 72 h or 96 h, depending on the cell culture. Conditions: rucaparib 20 µM (about IC30) or vehicle, present until read-out. Rucaparib or vehicle: Rucaparib. Cell line: OCI-C5x (clear cell). Measured: 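Luminescent ATP-based viability assay read 72 or 96 h after transfection, depending on culture, given as normalised percent viability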. Reading the numbers: viability, normalised: higher = more viable cells remaining. Active means: 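a well counts as a hit if its normalised viability is under 80 percent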. Calls: active = viability under 80%; inactive = viability 80% or more.
Shown is an unselected part of the about 2,100 reagents, under one of the conditions tested. 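Calls flag viability under 80% in either arm, not effects specific to rucaparib; the reference for percent is not stated.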 A reagent listed more than once was tested more than once; the source does not tell the runs apart. Not given: the 100% reference.

gene	technical replicate	viability, normalised (%)	outcome
KMT5C	1	80.3	inactive
KMT5C	2	65.6	active
KMT5C	3	50.1	active
GGCT	1	51.9	active
GGCT	2	42.5	active
GGCT	3	41.3	active
APTX	1	68.9	active
APTX	2	53.5	active
APTX	3	88.7	inactive
SNCA	1	44.7	active
SNCA	2	51.5	active
SNCA	3	45.1	active
MORC4	1	65.8	active
MORC4	2	48.6	active
MORC4	3	42.6	active
EIF2AK2	1	28.1	active
EIF2AK2	2	28.7	active
EIF2AK2	3	29.4	active
MKNK1	1	73.4	active
MKNK1	2	73.2	active
MKNK1	3	73	active
SIRT6	1	44.5	active
SIRT6	1	72.7	active
SIRT6	2	42.4	active
SIRT6	2	77.9	active
SIRT6	3	48.4	active
SIRT6	3	35.9	active
DBH	1	56.8	active
DBH	2	34.1	active
DBH	3	38.8	active
CLCF1	1	52.1	active
CLCF1	2	60.9	active
CLCF1	3	51.6	active
MED20	1	33.3	active
MED20	2	35.3	active
MED20	3	36.5	active
ZFAT	1	25.1	active
ZFAT	2	25.3	active
ZFAT	3	25.8	active
